No constants are given. Whether binding was seen depends on the method and setting. Binding seen in cells or lysates may run through a third protein. Some entries that bind do so weakly or less than the wild type.
Target: T1, FBXO31, endogenous in mouse embryonic fibroblasts (mouse (endogenous in MEF)) (UniProt Q3TQF0)
T1 sequence: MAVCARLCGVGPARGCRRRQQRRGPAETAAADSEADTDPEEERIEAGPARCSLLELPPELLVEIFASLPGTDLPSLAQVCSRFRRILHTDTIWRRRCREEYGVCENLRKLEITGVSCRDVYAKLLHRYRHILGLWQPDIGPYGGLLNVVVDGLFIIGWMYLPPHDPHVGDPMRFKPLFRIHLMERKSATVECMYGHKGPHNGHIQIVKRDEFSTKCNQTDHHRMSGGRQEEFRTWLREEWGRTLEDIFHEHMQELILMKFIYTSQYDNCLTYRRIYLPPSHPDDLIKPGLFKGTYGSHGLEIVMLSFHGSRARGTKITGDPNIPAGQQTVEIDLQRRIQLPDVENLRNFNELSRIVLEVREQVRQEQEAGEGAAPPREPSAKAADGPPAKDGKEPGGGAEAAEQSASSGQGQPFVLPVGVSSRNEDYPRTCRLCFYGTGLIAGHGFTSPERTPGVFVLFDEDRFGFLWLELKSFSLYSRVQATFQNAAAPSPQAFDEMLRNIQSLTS
Experiment: co-IP

γH2AX, endogenous in mouse embryonic fibroblasts (from UniProt P27661 1-143)
binding: binds

Source: article doi:10.1101/2024.06.03.596644
